Results are given in words; binding and its absence hold for the method and conditions named. Some binding calls cover weakened binding; strength is not graded here.
Molecular target: T1, Full-length wild-type rat TRPV2 (transient receptor potential vanilloid 2) (rat), Q9WUD2
T1 chain: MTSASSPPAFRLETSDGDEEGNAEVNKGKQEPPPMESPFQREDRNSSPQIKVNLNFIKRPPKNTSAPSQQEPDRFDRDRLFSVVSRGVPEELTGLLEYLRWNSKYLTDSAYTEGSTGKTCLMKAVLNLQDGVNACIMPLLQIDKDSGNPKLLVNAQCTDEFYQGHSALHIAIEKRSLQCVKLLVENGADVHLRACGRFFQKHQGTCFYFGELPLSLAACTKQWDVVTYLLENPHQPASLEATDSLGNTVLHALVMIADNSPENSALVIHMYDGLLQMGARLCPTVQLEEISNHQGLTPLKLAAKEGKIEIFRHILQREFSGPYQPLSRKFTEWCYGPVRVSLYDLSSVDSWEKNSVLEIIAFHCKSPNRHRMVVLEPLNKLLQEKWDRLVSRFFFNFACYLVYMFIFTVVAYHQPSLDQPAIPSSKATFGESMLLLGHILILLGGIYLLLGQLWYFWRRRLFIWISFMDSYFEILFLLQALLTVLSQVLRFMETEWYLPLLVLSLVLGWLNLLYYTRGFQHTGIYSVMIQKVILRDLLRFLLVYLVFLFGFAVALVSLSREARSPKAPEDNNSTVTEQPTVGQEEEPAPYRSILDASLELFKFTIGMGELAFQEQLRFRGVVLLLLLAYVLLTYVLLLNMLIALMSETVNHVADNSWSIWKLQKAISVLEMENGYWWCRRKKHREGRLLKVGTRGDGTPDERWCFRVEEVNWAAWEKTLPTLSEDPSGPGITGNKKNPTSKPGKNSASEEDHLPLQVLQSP
Test: cryo-EM structure
Conditions: remark: other sources report otherwise

B1: Full-length wild-type rat TRPV2 (transient receptor potential vanilloid 2), Q9WUD2 1-761 (natural protein)
chain: T1 chain
**Q.** B1 was tested. Which binding did it give?
**A.** binds

— publication doi:10.1101/2020.08.10.242008
